Results from article PMC8521029.
No constants are given. Whether binding was seen depends on the method and setting. Binding seen in cells or lysates may run through a third protein. Some results given as binding are weak or reduced against the parent protein; the word gives no strength.

Chains of the proteins cited; added tags and fusions are not shown.
UniProt Q04206: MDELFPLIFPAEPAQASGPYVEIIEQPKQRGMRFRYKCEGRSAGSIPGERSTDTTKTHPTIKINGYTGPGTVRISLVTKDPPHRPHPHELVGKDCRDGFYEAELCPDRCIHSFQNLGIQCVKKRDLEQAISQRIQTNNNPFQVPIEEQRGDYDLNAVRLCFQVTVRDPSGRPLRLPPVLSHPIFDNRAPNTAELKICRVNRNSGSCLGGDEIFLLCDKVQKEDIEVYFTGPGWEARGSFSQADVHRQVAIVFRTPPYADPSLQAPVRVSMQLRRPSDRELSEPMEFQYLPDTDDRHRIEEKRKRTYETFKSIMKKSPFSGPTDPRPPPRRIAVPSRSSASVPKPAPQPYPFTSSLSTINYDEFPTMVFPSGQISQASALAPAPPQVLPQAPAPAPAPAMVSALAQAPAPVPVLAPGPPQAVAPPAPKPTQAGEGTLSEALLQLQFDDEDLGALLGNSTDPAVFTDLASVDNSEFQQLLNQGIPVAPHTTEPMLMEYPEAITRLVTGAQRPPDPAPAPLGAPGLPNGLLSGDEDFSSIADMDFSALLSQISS

B1: RelB (protein, UniProt Q01201 1-579)
chain: MLRSGPASGPSVPTGRAMPSRRVARPPAAPELGALGSPDLSSLSLAVSRSTDELEIIDEYIKENGFGLDGGQPGPGEGLPRLVSRGAASLSTVTLGPVAPPATPPPWGCPLGRLVSPAPGPGPQPHLVITEQPKQRGMRFRYECEGRSAGSILGESSTEASKTLPAIELRDCGGLREVEVTACLVWKDWPHRVHPHSLVGKDCTDGICRVRLRPHVSPRHSFNNLGIQCVRKKEIEAAIERKIQLGIDPYNAGSLKNHQEVDMNVVRICFQASYRDQQGQMRRMDPVLSEPVYDKKSTNTSELRICRINKESGPCTGGEELYLLCDKVQKEDISVVFSRASWEGRADFSQADVHRQIAIVFKTPPYEDLEIVEPVTVNVFLQRLTDGVCSEPLPFTYLPRDHDSYGVDKKRKRGMPDVLGELNSSDPHGIESKRRKKKPAILDHFLPNHGSGPFLPPSALLPDPDFFSGTVSLPGLEPPGGPDLLDDGFAYDPTAPTLFTMLDLLPPAPPHASAVVCSGGAGAVVGETPGPEPLTLDSYQAPGPGDGGTASLVGSNMFPNHYREAAFGGGLLSPGPEAT

Target: T1, Myocardin related transcription factor A (MRTF-A) (human) (UniProt Q969V6)
T1 sequence: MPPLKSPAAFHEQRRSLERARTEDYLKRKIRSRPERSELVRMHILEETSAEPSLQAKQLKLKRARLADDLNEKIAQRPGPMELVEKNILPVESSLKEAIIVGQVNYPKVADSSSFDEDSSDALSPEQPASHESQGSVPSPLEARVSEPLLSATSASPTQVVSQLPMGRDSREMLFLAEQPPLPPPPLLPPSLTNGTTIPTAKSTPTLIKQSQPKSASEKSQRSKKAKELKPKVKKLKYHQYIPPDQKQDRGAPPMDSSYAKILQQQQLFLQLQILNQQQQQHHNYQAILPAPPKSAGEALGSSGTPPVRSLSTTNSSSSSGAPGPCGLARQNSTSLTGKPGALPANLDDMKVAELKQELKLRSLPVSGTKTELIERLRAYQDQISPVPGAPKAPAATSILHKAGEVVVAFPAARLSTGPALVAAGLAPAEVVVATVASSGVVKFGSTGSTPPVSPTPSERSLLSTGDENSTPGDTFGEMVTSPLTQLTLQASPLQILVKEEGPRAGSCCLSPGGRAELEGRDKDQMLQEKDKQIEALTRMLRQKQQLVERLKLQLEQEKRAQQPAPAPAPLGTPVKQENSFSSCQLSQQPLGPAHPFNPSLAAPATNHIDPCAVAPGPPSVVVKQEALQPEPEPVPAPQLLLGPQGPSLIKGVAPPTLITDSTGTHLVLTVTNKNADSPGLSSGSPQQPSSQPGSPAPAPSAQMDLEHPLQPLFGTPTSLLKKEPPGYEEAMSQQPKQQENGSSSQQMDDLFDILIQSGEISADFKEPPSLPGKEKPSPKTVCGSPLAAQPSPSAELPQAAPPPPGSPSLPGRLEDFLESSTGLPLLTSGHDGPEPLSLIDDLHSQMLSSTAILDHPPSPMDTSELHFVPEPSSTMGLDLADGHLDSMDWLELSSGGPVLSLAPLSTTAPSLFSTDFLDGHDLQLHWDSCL
Experiment: co-IP; MRTF-A antibody (Bethyl A302-202A) immobilised on AminoLink Plus Coupling Resin (Pierce co-IP kit); 1 mg pre-cleared lysate of hCASMCs overexpressing MRTF-A, overnight at 4°C; Control Resin column as negative control; eluates read by dot blot (RelA, RelB, MRTF-A) and western blot (RelA)

Row | Molecule | binding
1 | RelA (from UniProt Q04206 1-551) | binds
2 | B1 | binds
